Source: article PMC4311431
Results are given in words; binding and its absence hold for the method and conditions named. Some binding calls cover weakened binding; strength is not graded here. Tags and fused reporters may be left off the sequences shown.

Columns and labels:
6His-tagged SUMO-SA2 [1] = target: T1, 6His-tagged SUMO-SA2; experiment: SEC; purified and desalted SUMO-SA2 before cleavage; Superdex Peptide 10/300 GL, 0.7 ml/min, phosphate buffered saline; peaks checked by SDS-PAGE; both purified
T1 sequence: AAVVLLLWEE

6His-tagged SUMO-SA2 [2] = target: T1, 6His-tagged SUMO-SA2; experiment: SEC; SUMO-SA2 after cleavage with SUMO protease; void-volume peak collected and re-injected; Superdex Peptide 10/300 GL, 0.7 ml/min, phosphate buffered saline pH 7.4 (at pH 11.5 the major part of the aggregates dissolved); both purified

AAVVLLLWEE [6His-tagged SUMO-SA2]
binding (6His-tagged SUMO-SA2 [1]): binds

AAVVLLLWEE [SA2 peptide]
binding (6His-tagged SUMO-SA2 [2]): binds
